{
  "source": "patent US8808715B1",
  "about": "“Methods and compositions for modulating keratinocyte function” (Georgia Regents Research Institute, Inc, priority 2004, dated 2014)",
  "tested_on": "primary keratinocytes",
  "test": "[3H]Glycerol uptake",
  "format": "cell-based, mouse",
  "conditions": "simultaneous incubation with 100 nM PMA, measured over 10 minutes, n=3; no significant effect",
  "description": "Confluent primary keratinocytes were incubated for 30, 60, 90, 120, 300 or 600 seconds with SFKM containing 20 mM HEPES (for additional pH buffering), 1 μCi/mL [^3H]glycerol and 0.1% DMSO (control) or 100 nM PMA. Reactions were terminated by washing three times with ice-cold phosphate-buffered saline lacking divalent cations. The cells were subsequently solubilized in 0.3 M NaOH and aliquots of this extract subjected to liquid scintillation counting. Counts obtained from duplicate samples at each time point were averaged and graphed, and a linear equation was determined for each condition. Correlation coefficients obtained were typically 0.99 or greater (mean correlation coefficient for control was 0.992±0.002 and for PMA, 0.994±0.001). Slopes obtained from multiple experiments were averaged and analyzed statistically for significant differences between conditions.\nThe linearity of glycerol uptake determined above allowed measurement of uptake at a single time point to determine the effects of other treatments on this process. Thus, confluent keratinocytes were preincubated for 30 minutes with 0.1% DMSO (control) or 100 nM PMA prior to measuring [^3H]glycerol uptake as above but at 5 minutes only. […]",
  "note": "At least one compound was matched to its structure with a doubt left.",
  "data": [
    {"smiles": "CCCCCCCCCCCCCC(=O)O[C@@H]1[C@@H](C)[C@@]2(O)[C@@H](C=C(CO)C[C@]3(O)C(=O)C(C)=C[C@@H]23)[C@@H]2C(C)(C)[C@]12OC(C)=O", "note": "[PMA, Phorbol 12-myristate 13-acetate]", "values": [
      {"measurement": "glycerol uptake slope value", "result": "0.998-±0.009 fold over the control value"}
    ]}
  ]
}
